PubChem BioAssay AID504804 | Drosophila RNAi Screening Center, 2011
The deposit covers about 19,000 reagents; below is an unselected part of those that have a named target and a result. Over the whole deposit, 47 (0.25%) are marked active. 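Signals are raw, not normalised; exact z-scores behind calls not deposited; actives needed confirmation, so some wells reaching 2 SD are inactive.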 Reagents against one gene are numbered here. A plus sign joins genes that one reagent is predicted to hit. Reagent sequences are not shown.

- Test: 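Knock-downs shielding fly cells from apoptosis caused by DNA damage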 (primary screen)
- Cells: Drosophila Kc cells
- Reagent: long dsRNA against Drosophila genes, 0.5 µg dsRNA per well
- Time to read-out: 96 h (48 h knock-down, then 48 h drug)
- Conditions: doxorubicin 5 µg/ml for 48 h, added 48 h after dsRNA
- Measurement: 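Viability measured as cellular ATP by luminescence after 48 h knock-down then 48 h doxorubicin at 5 µg/ml; unnormalised plate counts for each replicate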
- Scale: raw ATP luminescence: higher = more viable cells, protection from doxorubicin
- Active means: 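Active when both duplicate wells lie at least 2 SD above the plate mean and protection is confirmed by rescreening and independent dsRNAs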

The first 5 entries, ahead of the listing:
predicted target	reagent no.	raw ATP luminescence, replicate 1	raw ATP luminescence, replicate 2	Call
Rcd5 (Reduction in Cnn dots 5)	1	52903	35443	inactive
Dic1	1	53003	26213	inactive
Hcs (Holocarboxylase synthetase)	1	89570	61957	inactive
Hcs (Holocarboxylase synthetase)	2	58907	70983	inactive
Picot	1	45697	1.11e5	inactive

Results, repeating the preview:
predicted target	reagent no.	raw ATP luminescence, replicate 1	raw ATP luminescence, replicate 2	Call
Rcd5 (Reduction in Cnn dots 5)	1	52903	35443	inactive
Dic1	1	53003	26213	inactive
Hcs (Holocarboxylase synthetase)	1	89570	61957	inactive
Hcs (Holocarboxylase synthetase)	2	58907	70983	inactive
Picot	1	45697	1.11e5	inactive
Syx4 (Syntaxin 4)	1	48460	40310	inactive
Dref (DNA replication-related element factor)	1	84640	68063	inactive
CG30423	1	77037	83727	inactive
CG9886	1	1.01e5	74210	inactive
CG16989	1	43690	58890	inactive
CG42450	1	3.27e5	3.09e5	inactive
CG8907	1	62030	48740	inactive
Imp (IGF-II mRNA-binding protein)	1	2.58e5	2.73e5	inactive
NimC1 (Nimrod C1)	1	69693	66367	inactive
CycH (Cyclin H)	1	59833	53737	inactive
inaF-C	1	1.84e5	1.94e5	inactive
CG42697	1	1.49e5	99930	inactive
ktub (king tubby)	1	71773	67610	inactive
Acsl (Acyl-CoA synthetase long-chain)	1	55490	51413	inactive
Prx2 (Peroxiredoxin 2)	1	3.45e5	2.93e5	inactive
CG4960	1	56230	70290	inactive
Tep4 (Thioester-containing protein 4)	1	55863	59567	inactive
CG31533	1	2.10e5	2.67e5	inactive
kni (knirps)	1	54640	68423	inactive
Aef1 (Adult enhancer factor 1)	1	62870	67800	inactive
nolo (no long nerve cord)	1	66010	61807	inactive
nolo (no long nerve cord)	2	42827	31877	inactive
nolo (no long nerve cord)	3	32750	36860	inactive
Tcs3 (Threonyl-carbamoyl synthesis 3)	1	46863	38713	inactive
Spt3	1	42960	45523	inactive
Prat (Phosphoribosylamidotransferase)	1	46230	54543	inactive
CG11164	1	3.28e5	2.66e5	inactive
gfzf (GST-containing FLYWCH zinc-finger protein)	1	46833	31350	inactive
EMC1 (ER membrane protein complex subunit 1)	1	41247	33797	inactive
mub (mushroom-body expressed)	1	20247	21773	inactive
CYLD (Cylindromatosis)	1	38670	78733	inactive
Gr2a (Gustatory receptor 2a)	1	51710	23930	inactive
CG12479	1	3.05e5	3.18e5	inactive
Cpr97Eb (Cuticular protein 97Eb)	1	62150	51200	inactive
CG11369	1	41660	44390	inactive
CG11905	1	38920	26887	inactive
POLDIP2 (Polymerase (DNA-directed), delta interacting protein 2)	1	52550	30130	inactive
CSN6 (COP9 signalosome subunit 6)	1	54720	51740	inactive
HmgD (High mobility group protein D)	1	30733	38510	inactive
CR30068 (retired record)	1	1.02e5	1.08e5	inactive
Veneno	1	45590	41107	inactive
ppk20 (pickpocket 20)	1	53550	49880	inactive
RpL34a (Ribosomal protein L34a)	1	86510	66200	inactive
Osi9 (Osiris 9)	1	1.86e5	1.82e5	inactive
CG32246	1	1.04e5	1.08e5	inactive
pds5	1	65710	51630	inactive
CG14246	1	61350	72210	inactive
tfc (triforce)	1	1.54e5	1.61e5	inactive
tfc (triforce)	2	1.37e5	1.52e5	inactive
tfc (triforce)	3	60223	68063	inactive
PpD3 (Protein phosphatase D3)	1	66560	65907	inactive
elm (ethanol sensitive with low memory)	1	63917	47880	inactive
CG12655	1	4.34e5	3.77e5	inactive
alien + CG17906	1	38980	58560	inactive
Dip-C (Dipeptidase C)	1	74163	30943	inactive
ETH (Ecdysis triggering hormone)	1	33670	63870	inactive
CG33178	1	3.84e5	3.44e5	inactive
CG9162 (retired record)	1	1.02e5	63753	inactive
CG7551	1	63990	59353	inactive
CG13404	1	3.86e5	3.04e5	inactive
RpL29 (Ribosomal protein L29)	1	66080	59420	inactive
CG30393	1	56227	50750	inactive
CG10232	1	55380	71820	inactive
CG7430	1	27293	26950	inactive
fu (fused)	1	1.45e5	1.48e5	inactive
CG5608	1	88980	15723	inactive
sncRNA:430e + His2A:CG33859 + His2A:CG33817 + 37 more	1	1.42e5	1.40e5	inactive
CR32745 (pseudo)	1	1.85e5	1.89e5	inactive
CG31872	1	31183	67707	inactive
CG31872	2	40123	79900	inactive
CG30002	1	81533	83873	inactive
Ubc2 (Ubiquitin conjugating enzyme 2)	1	2.84e5	3.00e5	inactive
Ubc2 (Ubiquitin conjugating enzyme 2)	2	40547	64320	inactive
CG13838	1	61030	53720	inactive
Amun	1	3.21e5	2.96e5	inactive
U2af38 (U2 small nuclear riboprotein auxiliary factor 38)	1	69290	50750	inactive
CG14718	1	44557	26743	inactive
CG11710	1	4.01e5	3.52e5	inactive
BBS9 (Bardet-Biedl syndrome 9)	1	61517	56973	inactive
